Measurements published in PubChem BioAssay AID248 (DTP/NCI, 2004).
The list is a part of this screen's results and no random one: it gathers some chemical classes. Other doses and runs of a compound may be missing. T/C gives the treated animals as a percentage of the vehicle group. Some doses have a count of surviving animals in place of a T/C: the source holds a T/C of zero for them, seemingly a mark for toxic or unscored doses. Survivors were counted at the toxicity check, usually on the fifth day, unless a day is given; later deaths do not show. Schedules are NCI's codes, read here as Q, the interval in days (D) or hours (H), X, the number of doses. Where survival is the endpoint, the PubChem record calls one and a half times the control and up active, and a quarter to a half above the control has no call in these data; cut-offs in other NCI protocols can differ. Marks such as (2×) give the number of equal values in this list. Some entries were tested several times; the results are listed from low to high. Some schedule codes hold Z or #, which are not explained here. Some T/C values carry the count of animals alive at the toxicity check (mostly the fifth day); without a count or a note in brackets, all were alive then.

Test system: L1210 leukemia ip in BDF1 mice, survival T/C
Test: NCI In Vivo Anticancer Drug Screen. Data for tumor model L1210 Leukemia (intraperitoneal) in B6D2F1 (BDF1) mice
Conditions: T/C endpoint: mean survival time, higher T/C = longer survival
[1] = dose: 112.0 mg/kg/injection, schedule: Q01DX006 (iv), vehicle: carboxymethylcellulose (CMC)

Structure (SMILES): NC(=O)c1[nH]cnc1/N=N\N(CCCl)CCCl
- T/C (dose: 100.0 mg/kg/injection, schedule: Q## X005 (ip), vehicle: carboxymethylcellulose (CMC)): 301 % of control
- T/C (dose: 102.0 mg/kg/injection, schedule: Q01DX001 (ip), vehicle: carboxymethylcellulose (CMC)): 178 and 205 % of control
- T/C (dose: 102.0 mg/kg/injection, schedule: Q07DX Z (ip), vehicle: carboxymethylcellulose (CMC)): 226 and 333 % of control
- T/C (dose: 106.0 mg/kg/injection, schedule: Q01DX001 (ip), vehicle: other): 147 % of control
- T/C (dose: 108.0 mg/kg/injection, schedule: Q01DX009 (ip), vehicle: carboxymethylcellulose (CMC)): 267 % of control
- T/C (dose: 108.0 mg/kg/injection, schedule: Q01DX017 (ip), vehicle: carboxymethylcellulose (CMC)): 225 % of control
- T/C (dose: 108.0 mg/kg/injection, schedule: Q01DX Z (ip), vehicle: carboxymethylcellulose (CMC)): 206 and 215 % of control
- T/C (dose: 108.0 mg/kg/injection, schedule: Q01DX Z (sc), vehicle: carboxymethylcellulose (CMC)): 272 % of control
- T/C (dose: 108.0 mg/kg/injection, schedule: Q04DX003 (ip), vehicle: carboxymethylcellulose (CMC)): 265 % of control
- T/C (dose: 108.0 mg/kg/injection, schedule: Q04DX005 (ip), vehicle: carboxymethylcellulose (CMC)): 335 % of control
- T/C (dose: 108.0 mg/kg/injection, schedule: Q04DX Z (ip), vehicle: carboxymethylcellulose (CMC)): 312 and 475 % of control
- T/C (dose: 108.0 mg/kg/injection, schedule: Q04DX Z (sc), vehicle: carboxymethylcellulose (CMC)): 146 % of control
- T/C [1]: 313 % of control [5 of 6 alive]
- survivor count [1]: 1 of 6
- T/C (dose: 112.0 mg/kg/injection, schedule: Q01DX Z (im), vehicle: carboxymethylcellulose (CMC)): 190 and 287 % of control
- T/C (dose: 112.0 mg/kg/injection, schedule: Q01DX Z (ip), vehicle: carboxymethylcellulose (CMC)): 165 and 174 % of control
- T/C (dose: 112.0 mg/kg/injection, schedule: Q01DX Z (oral), vehicle: carboxymethylcellulose (CMC)): 175 and 288 % of control
- T/C (dose: 112.0 mg/kg/injection, schedule: Q01DX Z (sc), vehicle: carboxymethylcellulose (CMC)): 180 and 246 % of control
- T/C (dose: 120.0 mg/kg/injection, schedule: Q01DX001 (ip), vehicle: clinical formulation): 96 and 150 % of control
- T/C (dose: 125.0 mg/kg/injection, schedule: Q01DX001 (ip), vehicle: carboxymethylcellulose (CMC)): 175 % of control
- T/C (dose: 125.0 mg/kg/injection, schedule: Q06HX008 (ip), vehicle: carboxymethylcellulose (CMC)): 520 % of control
- T/C (dose: 126.0 mg/kg/injection, schedule: Q#A X Z (ip), vehicle: carboxymethylcellulose (CMC)): 100 % of control [5 of 6 alive]
- T/C (dose: 129.6 mg/kg/injection, schedule: Q01DX001 (ip), vehicle: other): 108 % of control
- T/C (dose: 129.6 mg/kg/injection, schedule: Q01DX001 (ip), vehicle: steroid suspending solution): 99 % of control
- T/C (dose: 134.5 mg/kg/injection, schedule: Q01DX001 (ip), vehicle: steroid suspending solution): 289 % of control
- T/C (dose: 135.0 mg/kg/injection, schedule: Q04DX004 (ip), vehicle: other): 294 % of control
- T/C (dose: 150.0 mg/kg/injection, schedule: Q01DX001 (ip), vehicle: carboxymethylcellulose (CMC)): 161, 183, 188, 200 % of control
- T/C (dose: 150.0 mg/kg/injection, schedule: Q01DX005 (oral), vehicle: carboxymethylcellulose (CMC)): 221 % of control
- T/C (dose: 150.0 mg/kg/injection, schedule: Q01DX009 (oral), vehicle: carboxymethylcellulose (CMC)): 300 % of control
- T/C (dose: 150.0 mg/kg/injection, schedule: Q01DX017 (oral), vehicle: steroid suspending solution): 109 and 166 % of control
- T/C (dose: 150.0 mg/kg/injection, schedule: Q03DX Z (ip), vehicle: carboxymethylcellulose (CMC)): 327 % of control
- T/C (dose: 150.0 mg/kg/injection, schedule: Q03HX008 (oral), vehicle: carboxymethylcellulose (CMC)): 147 % of control
- T/C (dose: 150.0 mg/kg/injection, schedule: Q04DX005 (oral), vehicle: carboxymethylcellulose (CMC)): 226 % of control
- T/C (dose: 150.0 mg/kg/injection, schedule: Q04DX005 (oral), vehicle: steroid suspending solution): 141 % of control
- T/C (dose: 150.0 mg/kg/injection, schedule: Q06HX012 (oral), vehicle: steroid suspending solution): 105 % of control
- T/C (dose: 150.0 mg/kg/injection, schedule: Q06HX020 (oral), vehicle: steroid suspending solution): 165 % of control [7 of 8 alive]
- T/C (dose: 150.0 mg/kg/injection, schedule: Q08DX003 (oral), vehicle: carboxymethylcellulose (CMC)): 131 % of control
- T/C (dose: 150.0 mg/kg/injection, schedule: Q12HX004 (ip), vehicle: carboxymethylcellulose (CMC)): 449 % of control
- T/C (dose: 150.0 mg/kg/injection, schedule: Q## X001 (ip), vehicle: carboxymethylcellulose (CMC)): 267 % of control
- T/C (dose: 150.0 mg/kg/injection, schedule: Q## X009 (oral), vehicle: carboxymethylcellulose (CMC)): 315 % of control
- T/C (dose: 153.0 mg/kg/injection, schedule: Q01DX001 (ip), vehicle: carboxymethylcellulose (CMC)): 279 % of control
- T/C (dose: 153.0 mg/kg/injection, schedule: Q07DX Z (ip), vehicle: carboxymethylcellulose (CMC)): 348 % of control
- T/C (dose: 156.0 mg/kg/injection, schedule: Q01DX001 (ip), vehicle: other): 154 % of control (2×)
- T/C (dose: 166.0 mg/kg/injection, schedule: Q04DX003 (ip), vehicle: other): 232 and 307 % of control
- survivor count (dose: 168.0 mg/kg/injection, schedule: Q01DX006 (iv), vehicle: carboxymethylcellulose (CMC)): 0 of 6
- T/C (dose: 168.0 mg/kg/injection, schedule: Q01DX Z (im), vehicle: carboxymethylcellulose (CMC)): 152 % of control
- T/C (dose: 168.0 mg/kg/injection, schedule: Q01DX Z (ip), vehicle: carboxymethylcellulose (CMC)): 119 % of control
- T/C (dose: 168.0 mg/kg/injection, schedule: Q01DX Z (oral), vehicle: carboxymethylcellulose (CMC)): 155 % of control
- T/C (dose: 168.0 mg/kg/injection, schedule: Q01DX Z (sc), vehicle: carboxymethylcellulose (CMC)): 137 and 160 % of control
- survivor count (dose: 175.0 mg/kg/injection, schedule: Q01DX001 (ip), vehicle: carboxymethylcellulose (CMC)): 0 of 10
- survivor count (dose: 175.0 mg/kg/injection, schedule: Q04DX002 (ip), vehicle: carboxymethylcellulose (CMC)): 0 of 10
- T/C (dose: 175.0 mg/kg/injection, schedule: Q04DX003 (ip), vehicle: carboxymethylcellulose (CMC)): 277 % of control
- T/C (dose: 175.0 mg/kg/injection, schedule: Q04DX004 (ip), vehicle: carboxymethylcellulose (CMC)): 305 % of control
- T/C (dose: 175.0 mg/kg/injection, schedule: Q04DX005 (ip), vehicle: carboxymethylcellulose (CMC)): 322 % of control
- T/C (dose: 180.0 mg/kg/injection, schedule: Q01DX001 (ip), vehicle: carboxymethylcellulose (CMC)): 147, 220, 327 % of control
- T/C (dose: 180.0 mg/kg/injection, schedule: Q01DX001 (ip), vehicle: clinical formulation): 94 and 219 % of control
- T/C (dose: 180.0 mg/kg/injection, schedule: Q01DX009 (ip), vehicle: carboxymethylcellulose (CMC)): 124 % of control
- T/C (dose: 180.0 mg/kg/injection, schedule: Q01DX017 (ip), vehicle: carboxymethylcellulose (CMC)): 160 % of control
- T/C (dose: 180.0 mg/kg/injection, schedule: Q01DX Z (ip), vehicle: carboxymethylcellulose (CMC)): 113 and 160 % of control
- T/C (dose: 180.0 mg/kg/injection, schedule: Q01DX Z (sc), vehicle: carboxymethylcellulose (CMC)): 224 % of control
- T/C (dose: 180.0 mg/kg/injection, schedule: Q04DX003 (ip), vehicle: carboxymethylcellulose (CMC)): 468 % of control
- T/C (dose: 180.0 mg/kg/injection, schedule: Q04DX005 (ip), vehicle: carboxymethylcellulose (CMC)): 535 % of control
